In patent publication US20250129166A1:
These are yes or no findings as the source states them, for the method shown. Some entries that bind do so weakly or less than the wild type.

Amino acid sequences for entries named in this document (tags omitted). A change or cut given only in a name is not applied to a line headed by its entry.
UniProt Q9H7M9: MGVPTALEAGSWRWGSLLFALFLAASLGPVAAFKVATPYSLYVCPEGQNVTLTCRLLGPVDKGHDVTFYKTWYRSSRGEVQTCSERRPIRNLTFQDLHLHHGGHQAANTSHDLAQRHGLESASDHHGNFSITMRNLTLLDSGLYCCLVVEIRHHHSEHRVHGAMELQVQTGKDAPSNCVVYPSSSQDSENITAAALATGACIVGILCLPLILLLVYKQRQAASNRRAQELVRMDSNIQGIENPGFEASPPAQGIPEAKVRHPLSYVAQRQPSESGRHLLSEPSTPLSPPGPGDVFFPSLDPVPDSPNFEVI

Key:
[1] = biological target: monovalent hVISTA-ECD (amino acids 32-193 of SEQ ID NO: 1 with a 7xHis tail) (human) (UniProt Q9H7M9); assay: SPR, mAb on Protein A, 100 nM hVISTA-ECD, 37C, pH 7.4, 6.7 and 6.0
[2] = biological target: monovalent hVISTA-ECD (amino acids 32-193 of SEQ ID NO: 1 with a 7xHis tail) (human) (UniProt Q9H7M9); assay: SPR, mAb captured on Protein A, 100 nM hVISTA-ECD, 37 C, pH 7.4, 6.7 and 6.0, normalized sensorgrams

binding [1]: binds | binding [2]: binds
B1: VISTA.5 (mAb1) (antibody, V domains shown)
VH: AVQLQESGPGLVRPSQSLSLTCTVTDYSITSDYAWNWIRQFPGSKLEWLGFIGYSGNTNYNPSLESRISITRHTSKNQFFLHLNSMTTEDTATYYCARSLYGGSHWYFDVWGAGTTVTVSS
VL: DIVLTQSPASLAVSLGQRATISCRGSESVEYYGTILMQWYQQKPGQPPKLLIYGASNVESGVPARFSGSGSGTDFSLNIHPVEEDDIAMYFCQQSRKVPWTFGGGTKLEIK
